The supplement of paper PMC3334620
The full ranking holds about 33,000 sequences; the median of “E-score (-0.5 to 0.5)” is about -0.016, and the highest 2% start at about 0.3. The list shows a part of the results.

Each sequence was assayed against T1, Yer184c (UniProt P39961) (assay: PBM E-score (8-mer binding enrichment) (E-score (-0.5 to 0.5)); higher = stronger / more preferred TF binding). Conditions: protein concentration: 100 nM; construct: GST-full length.
T1 sequence: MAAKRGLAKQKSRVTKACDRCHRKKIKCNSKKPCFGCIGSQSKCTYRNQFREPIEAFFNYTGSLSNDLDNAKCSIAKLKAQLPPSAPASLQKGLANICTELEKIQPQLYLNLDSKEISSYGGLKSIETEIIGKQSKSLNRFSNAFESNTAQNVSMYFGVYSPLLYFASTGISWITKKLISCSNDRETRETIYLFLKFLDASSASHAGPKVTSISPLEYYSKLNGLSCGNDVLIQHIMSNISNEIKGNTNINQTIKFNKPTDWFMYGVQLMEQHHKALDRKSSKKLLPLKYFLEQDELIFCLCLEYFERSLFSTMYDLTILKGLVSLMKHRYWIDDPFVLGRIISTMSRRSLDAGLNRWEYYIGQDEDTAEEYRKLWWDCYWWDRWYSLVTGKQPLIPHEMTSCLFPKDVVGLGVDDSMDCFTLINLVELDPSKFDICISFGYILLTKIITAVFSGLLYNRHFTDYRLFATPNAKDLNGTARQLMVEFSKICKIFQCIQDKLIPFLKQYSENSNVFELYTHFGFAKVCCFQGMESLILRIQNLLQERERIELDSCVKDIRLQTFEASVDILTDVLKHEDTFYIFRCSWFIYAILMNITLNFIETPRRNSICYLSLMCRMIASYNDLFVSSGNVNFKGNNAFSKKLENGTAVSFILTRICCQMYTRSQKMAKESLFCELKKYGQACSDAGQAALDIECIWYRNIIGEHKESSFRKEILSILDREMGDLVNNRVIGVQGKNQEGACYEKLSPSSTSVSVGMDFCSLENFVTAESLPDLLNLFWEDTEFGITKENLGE
Method in brief: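 Detection of bound protein used fluorescent anti-GST, with scans normalised by masliner. The proteins were GST-tagged yeast transcription factors applied at about 100-200 nM to universal all-10-mer Agilent arrays made double-stranded by primer extension. Each ungapped eight-base word, pooled with its reverse complement, was scored with an E-score from the Universal PBM Analysis Suite.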

Q: How did the “PBM E-score” value turn out when TCCTACAA was run?
A: 0.0981

Q: Which “PBM E-score” value does the source give for AGTCGCAG here?
A: -0.0702

Q: How did the “PBM E-score” value turn out when ACCAGGCT was run?
A: -0.247

Q: With GGTTGGAA as the sequence, how does the “PBM E-score” value read?
A: -0.0213

Q: With TGCCCACA as the sequence, how does the “PBM E-score” value read?
A: -0.241

Q: GCCCCGTA was tested. Which “PBM E-score” value did it give?
A: -0.292

Q: GGCCACTA was tested. Which “PBM E-score” value did it give?
A: -0.192

Q: Which “PBM E-score” value does the source give for CAACCCAA here?
A: -0.114

Q: With ATGCACGC as the sequence, how does the “PBM E-score” value read?
A: 0.0543

Q: CGTACAAC was tested. Which “PBM E-score” value did it give?
A: 0.0683

Q: For GTCCTGCA, which “PBM E-score” value is on record?
A: -0.122

Q: With ACATTTCG as the sequence, how does the “PBM E-score” value read?
A: -0.0595

Q: How did the “PBM E-score” value turn out when CCCCCCGA was run?
A: -0.282

Q: ATGGTCCG was tested. Which “PBM E-score” value did it give?
A: 0.259

Q: Which “PBM E-score” value does the source give for CAAGAAAC here?
A: 0.21

Q: How did the “PBM E-score” value turn out when ACATCAGT was run?
A: -0.062

Q: For ATGCGGGC, which “PBM E-score” value is on record?
A: -0.23

Q: Which “PBM E-score” value does the source give for CGGTGTTA here?
A: 0.171

Q: How did the “PBM E-score” value turn out when ACGGGGTG was run?
A: -0.181

Q: With TGAATTAA as the sequence, how does the “PBM E-score” value read?
A: 0.222

Q: How did the “PBM E-score” value turn out when AGATTGGG was run?
A: 0.0343

Q: For CCTTCACC, which “PBM E-score” value is on record?
A: -0.14

Q: For CAACTATA, which “PBM E-score” value is on record?
A: -0.0575

Q: ACCGTCCA was tested. Which “PBM E-score” value did it give?
A: 0.0203

Q: AGGAATTC was tested. Which “PBM E-score” value did it give?
A: -0.0648

Q: AAAACGCT was tested. Which “PBM E-score” value did it give?
A: -0.122

Q: With ATGCAGCA as the sequence, how does the “PBM E-score” value read?
A: 0.0105

Q: Which “PBM E-score” value does the source give for CAACGGTG here?
A: -0.266

Q: CACCGCGA was tested. Which “PBM E-score” value did it give?
A: -0.247

Q: How did the “PBM E-score” value turn out when ACGTCAAT was run?
A: -0.246

Q: Which “PBM E-score” value does the source give for AAAATTTC here?
A: 0.149

Q: Which “PBM E-score” value does the source give for ACTAGGTC here?
A: 0.015

Q: GATCGCCC was tested. Which “PBM E-score” value did it give?
A: -0.156

Q: How did the “PBM E-score” value turn out when AATGTTTA was run?
A: -0.00557

Q: How did the “PBM E-score” value turn out when CGATTTAC was run?
A: 0.0316

Q: ATTACCCA was tested. Which “PBM E-score” value did it give?
A: 0.071

Q: TCTTATCA was tested. Which “PBM E-score” value did it give?
A: 0.197

Q: With ACGAGCCG as the sequence, how does the “PBM E-score” value read?
A: 0.22

Q: How did the “PBM E-score” value turn out when CGACGGCC was run?
A: 0.0317

Q: With ACAAGCTA as the sequence, how does the “PBM E-score” value read?
A: -0.0434

Q: For AAACTCAG, which “PBM E-score” value is on record?
A: -0.00485

Q: CGCCCGAA was tested. Which “PBM E-score” value did it give?
A: 0.0404

Q: With CCACCATC as the sequence, how does the “PBM E-score” value read?
A: -0.272

Q: Which “PBM E-score” value does the source give for ATTCCATA here?
A: 0.147

Q: How did the “PBM E-score” value turn out when TGGGCTAA was run?
A: -0.147

Q: For AGGAGCCC, which “PBM E-score” value is on record?
A: -0.185

Q: With AAGTCGAC as the sequence, how does the “PBM E-score” value read?
A: 0.251

Q: With AACGGTCG as the sequence, how does the “PBM E-score” value read?
A: 0.0793

Q: CCTCGGCG was tested. Which “PBM E-score” value did it give?
A: 0.355

Q: AAAACACA was tested. Which “PBM E-score” value did it give?
A: 0.119

Q: How did the “PBM E-score” value turn out when AAAAAAAG was run?
A: 0.143

Q: CCTCAGTC was tested. Which “PBM E-score” value did it give?
A: -0.114

Q: With GATGAAAA as the sequence, how does the “PBM E-score” value read?
A: 0.142

Q: With CTTCAACA as the sequence, how does the “PBM E-score” value read?
A: 0.0953

Q: With CTTCTTAA as the sequence, how does the “PBM E-score” value read?
A: 0.0941

Q: How did the “PBM E-score” value turn out when AAATGCTC was run?
A: -0.0216

Q: Which “PBM E-score” value does the source give for AGGGCGCG here?
A: -0.0851

Q: How did the “PBM E-score” value turn out when AGCAATTC was run?
A: -0.00487

Q: Which “PBM E-score” value does the source give for ACTCGGTA here?
A: -0.00121

Q: Which “PBM E-score” value does the source give for AAGATCAG here?
A: -0.0697

Q: With TAGCCCTA as the sequence, how does the “PBM E-score” value read?
A: -0.174

Q: For CCTATTCG, which “PBM E-score” value is on record?
A: -0.00975

Q: Which “PBM E-score” value does the source give for CTCTGATA here?
A: 0.0668

Q: How did the “PBM E-score” value turn out when CGCGCAGC was run?
A: -0.0875

Q: Which “PBM E-score” value does the source give for GAGCACGC here?
A: -0.0691

Q: With AAAGTCGA as the sequence, how does the “PBM E-score” value read?
A: -0.0507

Q: AACACGCT was tested. Which “PBM E-score” value did it give?
A: -0.177

Q: AATCATAC was tested. Which “PBM E-score” value did it give?
A: 0.0932

Q: ACCGTCTA was tested. Which “PBM E-score” value did it give?
A: -0.119

Q: Which “PBM E-score” value does the source give for CTGTGTCC here?
A: 0.0636

Q: For CTTTTCTC, which “PBM E-score” value is on record?
A: 0.0363

Q: Which “PBM E-score” value does the source give for ACTCTAGC here?
A: -0.204

Q: For ATAGAAAT, which “PBM E-score” value is on record?
A: 0.318

Q: CGACTATC was tested. Which “PBM E-score” value did it give?
A: -0.2

Q: For ATCCCCAA, which “PBM E-score” value is on record?
A: -0.203

Q: How did the “PBM E-score” value turn out when TAGGGCGA was run?
A: -0.191

Q: For CAAGTCTA, which “PBM E-score” value is on record?
A: -0.0527

Q: For TAATGAGA, which “PBM E-score” value is on record?
A: -8e-05

Q: Which “PBM E-score” value does the source give for CCTGGTCC here?
A: -0.252

Q: Which “PBM E-score” value does the source give for AGTGATTA here?
A: 0.1

Q: For AATCTGAC, which “PBM E-score” value is on record?
A: -0.0139

Q: Which “PBM E-score” value does the source give for CCCTCCGA here?
A: -0.0303

Q: Which “PBM E-score” value does the source give for GGCTCTCA here?
A: -0.0818

Q: With CATACTTA as the sequence, how does the “PBM E-score” value read?
A: 0.0423

Q: For CTTACGGC, which “PBM E-score” value is on record?
A: 0.061

Q: With CCGTCCTC as the sequence, how does the “PBM E-score” value read?
A: -0.151

Q: With AACCTTTA as the sequence, how does the “PBM E-score” value read?
A: -0.0862

Q: How did the “PBM E-score” value turn out when AAACCGGA was run?
A: 0.306

Q: GCTTTGCA was tested. Which “PBM E-score” value did it give?
A: -0.132

Q: With CTGGCGCA as the sequence, how does the “PBM E-score” value read?
A: -0.272

Q: With AACACCCC as the sequence, how does the “PBM E-score” value read?
A: -0.138

Q: Which “PBM E-score” value does the source give for CCAAGTAA here?
A: 0.119

Q: Which “PBM E-score” value does the source give for GTGCCCAC here?
A: -0.254

Q: How did the “PBM E-score” value turn out when CTTTTAGA was run?
A: 0.0275
